PubChem BioAssay AID504327 (National Center for Advancing Translational Sciences (NCATS), 2011)
“And” between values parts separate entries of the source, which are not always exact repeats. Equal entries are not always repeated. Out of some 390,000 compounds screened, about 820 (0.21%) were called active. The inconclusive results got no clear call from the source; some entries with a clear call stand among them for comparison. The call rests on the fitted dose curve; in most records, active means well fitted inhibition curve with a large enough effect; inconclusive means small, poorly fitted or top-dose-only effect, or another doubt; inactive means no such curve, though single readings can be large or run the other way. Potencies beside an inconclusive call are fits to weak or partial responses and may not hold up. Some structures have more than one record in an assay (separate samples or runs), and their calls can disagree.
Potency means the concentration at half of the fitted maximal effect.

Protein sequences, listed by entry. Tags and fused reporters are not part of them.
UniProt Q92830, whole entry, looked up: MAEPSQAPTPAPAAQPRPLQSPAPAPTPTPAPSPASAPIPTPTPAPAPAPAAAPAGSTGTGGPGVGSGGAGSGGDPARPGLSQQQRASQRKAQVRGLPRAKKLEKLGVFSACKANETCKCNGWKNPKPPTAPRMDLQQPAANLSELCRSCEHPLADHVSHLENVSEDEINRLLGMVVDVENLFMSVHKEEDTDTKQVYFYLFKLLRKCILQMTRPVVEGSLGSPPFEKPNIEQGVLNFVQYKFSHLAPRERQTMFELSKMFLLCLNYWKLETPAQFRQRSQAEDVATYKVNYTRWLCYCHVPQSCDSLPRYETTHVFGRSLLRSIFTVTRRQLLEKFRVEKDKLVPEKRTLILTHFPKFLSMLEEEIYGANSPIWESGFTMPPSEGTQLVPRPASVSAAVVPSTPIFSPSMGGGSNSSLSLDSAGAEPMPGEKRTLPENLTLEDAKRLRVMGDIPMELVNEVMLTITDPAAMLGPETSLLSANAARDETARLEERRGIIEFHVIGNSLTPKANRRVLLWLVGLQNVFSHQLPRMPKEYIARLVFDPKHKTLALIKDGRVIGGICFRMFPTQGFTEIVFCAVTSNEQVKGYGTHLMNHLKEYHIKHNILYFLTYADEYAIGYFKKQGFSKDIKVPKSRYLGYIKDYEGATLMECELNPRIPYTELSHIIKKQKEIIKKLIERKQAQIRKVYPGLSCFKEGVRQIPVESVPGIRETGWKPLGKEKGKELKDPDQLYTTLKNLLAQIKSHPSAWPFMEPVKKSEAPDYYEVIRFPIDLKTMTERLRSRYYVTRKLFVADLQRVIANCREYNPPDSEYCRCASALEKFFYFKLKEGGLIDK

The compounds below were run against Histone acetyltransferase KAT2A (Homo sapiens) (UniProt Q92830) (assay: qHTS Assay for Inhibitors of GCN5L2). Conditions: GCN5L2 HAT assay, ThioGlo1 CoA-SH fluorescence; series mostly up to 58.9 µM.
Summary of the method: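 Fluorescence readout, Ex340nm/Em540nm: ThioGlo1 (50uM final) reacts with free CoA thiol released as 20nM GCN5L2 acetylates H3(1-25) peptide (75uM) using acetyl-CoA (70uM). Compound and enzyme sat 15 min beforehand; 20 min room-temperature reaction.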
With `O=C(Nc1nnc(S(=O)(=O)N2CCCCC2)s1)c1ccc(Cl)cc1` the Potency was active: 11.2 µM.
In the case of `O=C1NC(=O)C(c2ccccc2[N+](=O)[O-])=C1Nc1ccc(O)c(Cl)c1`, the Potency is reported as inconclusive: 28.2 µM [inhibitor, single point].
With `O=C(/C=C/c1ccco1)Nc1scc(-c2ccccc2)c1C(=O)O` the Potency was inconclusive: 11.2 µM [inhibitor, partial curve].
For `Cc1cc(C)c(N)c(C(=O)O)c1`, the Potency was inconclusive: 5.01 µM [inhibitor, single point].
In the case of `O=[N+]([O-])c1ccc(Cl)cc1Sc1cccc2cccnc12`, the Potency is reported as “inactive”.
With `CCc1cc(=O)oc2cc(C)cc(OCC(=O)NCC3CCC(C(=O)O)CC3)c12` (stereo not drawn) the Potency was inconclusive: 3.98 µM [inhibitor, single point].
For `Cc1cccc(NC(=O)/C(C#N)=C\c2ccc(C(=O)O)cc2)c1`, the Potency was “inactive”.
`COc1cc(C(=O)N/N=C/c2coc3ccc(Cl)cc3c2=O)ccc1O` was tested, and the Potency was inconclusive: 1.58 µM [inhibitor, full curve, poor fit].
In the case of `Cc1cc(Nc2ccc(O)cc2)n2c(nc3ccccc32)c1C#N`, the Potency is reported as “inactive”.
`Cc1ccc(NC(=O)CN2CCc3cc4c(cc3C2C)OCCCO4)cc1C` (stereo not drawn) was tested, and the Potency was inconclusive: 3.98 µM [inhibitor, partial curve, poor fit].
In the case of `COC(=O)c1nn(-c2ccccc2)c(Sc2ccc(Cl)cc2)c1/C=N/O`, the Potency is reported as inconclusive: 25.1 µM [inhibitor, single point].
In the case of `c1ccc(-c2nnc3sc(-c4csc5c4CCCC5)nn23)cc1`, the Potency is reported as inconclusive: 28.2 µM [inhibitor, single point].
With `O=C(c1ccc(-n2cccn2)cc1)N1CCc2c([nH]c3ccccc23)C1c1ccccn1` (stereo not drawn) the Potency was “inactive”.
For `O=c1c(O[C@H]2O[C@@H](CO)[C@H](O)[C@@H](O)[C@@H]2O)c(-c2ccc(O)cc2)oc2cc(O)cc(O)c12`, the Potency was “inactive”.
In the case of `Cc1[nH]c(-c2ccc3c(c2)OCO3)nc1C(=O)O`, the Potency is reported as “inactive”.
`Cc1ccc(C(=O)NC(=S)Nc2ccc(N3CCN(C(=O)c4ccco4)CC3)cc2)cc1` was tested, and the Potency was inconclusive: 2.24 µM [inhibitor, partial curve, poor fit].
In the case of `CC(C)=CCOc1ccc(/C=C/C(=O)c2ccc(OCC=C(C)C)cc2OCC(=O)O)cc1`, the Potency is reported as active: 10 µM.
`CCOC(=O)C1=C(COC(=O)c2cccc(Cl)c2)NC(=O)NC1C` (stereo not drawn) was tested, and the Potency was inconclusive: 8.91 µM [inhibitor, full curve, poor fit].
For `O=C(CSCc1nc2cccnc2n1C1CCCCC1)NCc1cccc(Br)c1`, the Potency was “inactive”.
`Cc1ccc(S(=O)(=O)NCC(=O)OCC(=O)Nc2ncc(Cl)cc2Cl)cc1` was tested, and the Potency was inconclusive: 39.8 µM [inhibitor, single point].
In the case of `CCn1c(Cl)c(C=O)s/c1=N\S(=O)(=O)c1ccccc1`, the Potency is reported as “inactive”.
With `O=C(COc1ccccc1)Nc1ccccc1F` the Potency was inconclusive: 0.112 µM [inhibitor, full curve, poor fit].
For `CN(C)CCNc1oc(/C=C/c2ccccc2)nc1C#N`, the Potency was inconclusive: 11.2 µM [inhibitor, partial curve, poor fit].
With `O=c1oc2c3c4c(cc2c2c1CCC2)OCCN4CCC3` the Potency was inconclusive: 22.4 µM [inhibitor, partial curve].
In the case of `CCN(CC)S(=O)(=O)c1ccc(N2CCOCC2)c(NS(=O)(=O)c2ccc(C)c(C)c2)c1`, the Potency is reported as inconclusive: 6.31 µM [inhibitor, single point].
In the case of `O=C(CN1C(=O)c2ccccc2C1=O)c1ccc(F)cc1`, the Potency is reported as inconclusive: 0.126 µM [inhibitor, full curve, poor fit].
In the case of `COc1c(CC=C(C)C)cc(C2CC(=O)c3c(O)cc(O)cc3O2)cc1CC=C(C)C` (stereo not drawn), the Potency is reported as inconclusive: 39.8 µM [inhibitor, partial curve, poor fit].
With `CC(=O)N1c2ccc(S(=O)(=O)NCCC(=O)NCc3ccc(N(C)C)cc3)cc2CC1C` (stereo not drawn) the Potency was “inactive”.
In the case of `Cc1ccc2nc(NC(=O)c3cc(-c4ccco4)nc4ccccc34)sc2c1`, the Potency is reported as inconclusive: 15.8 µM [inhibitor, partial curve, poor fit].
`Cc1cccc(/C=N/NC(=O)c2cc3c(s2)-c2ccccc2CC3)c1` was tested, and the Potency was inconclusive: 39.8 µM [inhibitor, single point].
With `Cc1cccc(N2CCN(C(=O)c3ccccc3NC(=O)C3CC=CCC3C(=O)O)CC2)c1` (stereo not drawn) the Potency was inconclusive: 39.8 µM [inhibitor, single point].
With `c1ccc(CSc2nnc(-c3ccco3)n2Cc2ccco2)cc1` the Potency was “inactive”.
`COC(=O)c1ccccc1NC(=O)CSc1nc2sc3c(c2c(=O)[nH]1)CCCC3` was tested, and the Potency was inconclusive: 28.2 µM [inhibitor, partial curve].
With `Cc1nc2nc(C)c(CCC(=O)NC(C)c3ccc4c(c3)OCCO4)c(C)n2n1` (stereo not drawn) the Potency was inconclusive: 6.31 µM [inhibitor, single point].
For `CCn1nc(NC(=O)c2cccs2)c2cc3ccccc3nc21`, the Potency was “inactive”.
With `COCCCNC(=O)/C(C#N)=c1\s/c(=C\c2ccccc2OC(F)F)c(=O)n1CCCOC` the Potency was inconclusive: 39.8 µM [inhibitor, single point].
`O=C(NC1CCN(Cc2ccccc2)CC1)c1ccccc1` was tested, and the Potency was “inactive”.
`O=C(Nc1nnc(COc2ccc(F)cc2)s1)c1ccco1` was tested, and the Potency was inconclusive: 31.6 µM [inhibitor, partial curve].
`CN(C)S(=O)(=O)c1cccc(NC(=O)c2cc(=O)[nH]c(=O)[nH]2)c1` was tested, and the Potency was “inactive”.
With `CS(=O)(=O)Nc1cccc(-c2nc(NCc3cccs3)c3ccccc3n2)c1` the Potency was inconclusive: 25.1 µM [inhibitor, partial curve].
With `CC1(C)Cc2c(cnn2-c2ccc(F)cc2)C(NC(=O)c2ccc(=O)oc2)C1` (stereo not drawn) the Potency was inconclusive: 28.2 µM [inhibitor, single point].
With `Cc1cc(C)c(C#N)c(SCc2ccccc2)n1` the Potency was “inactive”.
In the case of `COc1ccc(N2Cc3cccc(C(=O)Nc4ccc(C(C)C)cc4)c3C2=O)cc1`, the Potency is reported as inconclusive: 39.8 µM [inhibitor, single point].
`COc1ccccc1CNc1cc(-c2ccccc2)nc2nncn12` was tested, and the Potency was “inactive”.
`CCCNC(=O)c1ccc2c(=O)c(O)c(-c3cccc(Br)c3)[nH]c2c1` was tested, and the Potency was inconclusive: 39.8 µM [inhibitor, partial curve].
With `COc1ccc(-n2nc3ccccc3n2)cc1` the Potency was “inactive”.
In the case of `O=C(Cc1cc(=O)oc2cc(O)ccc12)NCC1CCC(C(=O)O)CC1` (stereo not drawn), the Potency is reported as active: 28.2 µM.
With `CCN1CCc2c(sc(NC(=O)c3ccc(C(=O)c4ccccc4)cc3)c2C(N)=O)C1` the Potency was “inactive”.
For `Cc1cc2ccccc2n1CCNC(=O)C(C)Oc1ccccc1` (stereo not drawn), the Potency was inconclusive: 7.08 µM [inhibitor, single point].
In the case of `COc1ccc(/C=C/C(=O)OCC(=O)NCc2ccco2)cc1OC`, the Potency is reported as “inactive”.
With `COc1cc(OC)cc(-c2nc3nc(C)c(CCC(=O)Nc4ccc(Cl)cc4)c(C)n3n2)c1` the Potency was “inactive”.
For `Cc1cc(C)c(Nc2nn3c(=O)c4cc5c(cc4nc3s2)OCO5)c(C)c1`, the Potency was inconclusive: 31.6 µM [inhibitor, single point].
For `Cc1ccc(NC(=O)CCC(=O)NNS(=O)(=O)c2ccccc2)c(C)c1`, the Potency was “inactive”.
For `Cc1ccc(C(=O)NCCNc2ccc(Cl)cc2[N+](=O)[O-])o1`, the Potency was inconclusive: 39.8 µM [inhibitor, single point].
With `COc1ccc(C2C(C#N)=C(N)OC3=C2C(=O)CC(C)(C)C3)c([N+](=O)[O-])c1OC` (stereo not drawn) the Potency was inconclusive: 7.08 µM [inhibitor, single point].
With `CCn1ccnc1CN(C)C(=O)C1CCC(=O)N(Cc2cccc(C(F)(F)F)c2)C1` (stereo not drawn) the Potency was inconclusive: 10 µM [inhibitor, partial curve].
With `CCOc1ccccc1NC(=O)C(Cc1ccccc1)NS(=O)(=O)c1ccc(Br)s1` (stereo not drawn) the Potency was inconclusive: 11.2 µM [inhibitor, partial curve, poor fit].
In the case of `COc1cc(/C=N/NC(=O)c2ccncc2)ccc1OCC(=O)Nc1ccc(C)c(C)c1`, the Potency is reported as inconclusive: 39.8 µM [inhibitor, single point].
In the case of `COCc1nc2oc3ccccc3c(=O)c2cc1C(=O)OC`, the Potency is reported as inconclusive: 3.55 µM [inhibitor, single point].
In the case of `CCOC(=O)c1cc2cc(OC)ccc2[nH]1`, the Potency is reported as inconclusive: 28.2 µM [inhibitor, single point].
In the case of `C=Cn1cc[n+](CC(=O)c2ccc(Cl)cc2)c1`, the Potency is reported as inconclusive: 7.94 µM [inhibitor, full curve].
With `CCCC[C@@H](C)/C=C(C)/C=C(\C)C(=O)NC1=C[C@@](O)(/C=C/C=C/C=C/C(=O)NC2=C(O)CCC2=O)[C@@H]2O[C@@H]2C1=O` the Potency was inconclusive: 39.8 µM [inhibitor, single point].
With `O=C(NC1CCCC1)c1ccc(CSc2nc3ccncc3n2Cc2ccccc2F)cc1` the Potency was “inactive”.
In the case of `O=c1cc(-c2ccccc2)nc(SCc2ccc(Cl)cc2)[nH]1`, the Potency is reported as inconclusive: 0.398 µM [inhibitor, partial curve, poor fit].
For `COc1ccc(CCN(C)CC(O)COC(c2ccc(F)cc2)c2ccc(F)cc2)cc1OC` (stereo not drawn), the Potency was “inactive”.
In the case of `COc1ccccc1[C@@H]1C(c2ccccc2)=NN(c2ccccc2)[C@H]1C(=O)N1CCOC1=O`, the Potency is reported as inconclusive: 22.4 µM [inhibitor, partial curve] and inconclusive: 31.6 µM [inhibitor, single point].
With `O=C(CSc1nncn1-c1ccccc1)Nc1ccccc1` the Potency was inconclusive: 39.8 µM [inhibitor, single point].
`O=C(CCn1c(=O)oc2ccccc21)N1CCN(c2ccccc2F)CC1` was tested, and the Potency was inconclusive: 39.8 µM [inhibitor, single point].
